PubChem BioAssay AID1259425 | University of Nebraska Medical Center – 2018

Aim: 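Seek colon cancer weak points whose silencing resembles KSR1 loss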 (primary screen)
Cell system: HCT116 human colon cancer cells
Reagents: siRNA pool against human genes, 50 nM siRNA
Measurement: 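After 50 nM siRNA pool, branched-DNA assay measures six marker transcripts per well, minus blank, normalised to the geometric mean of two housekeeping transcripts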
Reading the numbers: BNIP3L mRNA: higher = more BNIP3L transcript after knockdown; NDRG1 mRNA: higher = more NDRG1 transcript after knockdown; BNIP3 mRNA: higher = more BNIP3 transcript after knockdown; ALDOC mRNA: higher = more ALDOC transcript after knockdown; ACSL5 mRNA: higher = more ACSL5 transcript after knockdown
In all, the deposit lists about 14,000 reagents; shown is a part drawn at random. Not stated in the record: the time to read-out.

Target gene	BNIP3L mRNA, set 1	NDRG1 mRNA, set 1	BNIP3 mRNA, set 1	ALDOC mRNA, set 1	ACSL5 mRNA, set 1
UTS2 (urotensin 2)	0.0363	0.236	0.131	0.0162	0.218
PNLIP (pancreatic lipase)	0.0748	0.188	0.294	0.0457	0.136
TPTE2	0.124	0.121	0.288	0.0214	0.42
DHRS3 (dehydrogenase/reductase 3)	0.104	0.106	0.252	0.0293	0.0946
DEFB4A (defensin beta 4A)	0.106	0.0972	0.33	0.0226	0.0739
XRCC3 (X-ray repair cross complementing 3)	0.0982	0.127	0.296	0.0368	0.103
CPA1 (carboxypeptidase A1)	0.121	0.217	0.41	0.0261	0.182
TBC1D29P (TBC1 domain family member 29, pseudogene)	0.144	0.705	0.552	0.023	0.17
LIMD1 (LIM domain containing 1)	0.0497	0.065	0.217	0.000875	0.0881
LMAN2 (lectin, mannose binding 2)	0.127	0.369	0.32	0.0409	0.199
PRSS2 (serine protease 2)	0.0789	0.158	0.297	0.0182	0.0648
PTPN18 (protein tyrosine phosphatase non-receptor type 18)	0.122	0.235	0.179	0.0194	0.167
PTCH1 (patched 1)	0.0399	0.0674	0.267	0.0121	0.0893
CALML3 (calmodulin like 3)	0.17	1.34	0.343	0.0286	0.243
SLC10A1	0.0482	0.186	0.335	0.00804	0.108
HOXB4 (homeobox B4)	0.0801	0.276	0.415	0.0126	0.0486

In a second layout: 2 of the entries above.
XRCC3 (X-ray repair cross complementing 3)
- BNIP3L mRNA, set 1: 0.0982
- NDRG1 mRNA, set 1: 0.127
- BNIP3 mRNA, set 1: 0.296
- ALDOC mRNA, set 1: 0.0368
- ACSL5 mRNA, set 1: 0.103

CPA1 (carboxypeptidase A1)
- BNIP3L mRNA, set 1: 0.121
- NDRG1 mRNA, set 1: 0.217
- BNIP3 mRNA, set 1: 0.41
- ALDOC mRNA, set 1: 0.0261
- ACSL5 mRNA, set 1: 0.182

More results:
Target gene	BNIP3L mRNA, set 1	NDRG1 mRNA, set 1	BNIP3 mRNA, set 1	ALDOC mRNA, set 1	ACSL5 mRNA, set 1
C22orf46P (chromosome 22 open reading frame 46, pseudogene)	0.163	0.508	0.364	0.0507	0.309
CHST4 (carbohydrate sulfotransferase 4)	0.211	0.256	0.296	0.0723	0.213
PDE1C (phosphodiesterase 1C)	0.087	0.112	0.281	0.0198	0.0806
SLC30A9	0.148	0.694	0.59	0.0725	0.375
NR2F6 (nuclear receptor subfamily 2 group F member 6)	0.23	0.606	0.441	0.187	0.114
PURB (purine rich element binding protein B)	0.0293	0.314	0.251	0.0503	0.432
CDH1 (cadherin 1)	0.123	0.103	0.231	0.00931	0.122
RHBDF1 (rhomboid 5 homolog 1)	0.212	0.217	0.279	0.0243	0.256
TRIB2 (tribbles pseudokinase 2)	0.104	0.426	0.353	0.00427	0.309
COQ10B (coenzyme Q10B)	0.0659	0.272	0.407	0.0346	0.166
ELOVL2 (ELOVL fatty acid elongase 2)	0.143	0.103	0.373	0.02	0.159
DCT (dopachrome tautomerase)	0.065	0.195	0.325	0.0323	0.268
COG8 (component of oligomeric golgi complex 8)	0.2	0.166	0.343	0.107	0.499
EGF (epidermal growth factor)	0.0461	0.103	0.254	0.0229	0.109
TRHR (thyrotropin releasing hormone receptor)	0.0542	0.262	0.248	0.0492	0.209
BTAF1 (B-TFIID TATA-box binding protein associated factor 1)	0.122	0.191	0.254	0.0205	0.243
OR51E2 (olfactory receptor family 51 subfamily E member 2)	0.129	0.0704	0.223	0.0151	0.124
SLC17A9	0.065	0.252	0.316	0.0208	0.318
